PubChem BioAssay AID743121, NCATS | 2013
In all, the deposit lists about 26,000 reagents; below is a random part of them. In the full data, 167 (0.63%) are marked active. 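Calls are per gene from RSA p-values that are not deposited; an individual active-marked siRNA can sensitise only weakly.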 Reagents against one gene are numbered here.

- Purpose: 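Genes whose silencing strengthens cell killing by camptothecin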 (primary screen)
- Cells: MDA-MB-231 cells, a human breast cancer line
- Reagent: single siRNA against human genes, 20 nM siRNA (0.8 pmol per well)
- Time to read-out: 120 h (drug added 48 h after transfection, read 72 h later)
- Conditions: camptothecin 20 nM (about EC30) for 72 h; vehicle 0.1% DMSO in parallel plates
- Read-out: 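Cell viability by ATP luminescence (CellTiter-Glo) as % of non-targeting siRNA wells, and the log2 ratio of viability without drug over viability with camptothecin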
- Reading the numbers: log2 vehicle/camptothecin viability: higher = stronger sensitisation to camptothecin; viability with camptothecin and viability without drug: higher = more viable cells
- Call rule: 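Active genes have an RSA gene-level p-value below 0.001, computed from the ratios of their separate siRNAs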

| Gene | reagent no. | log2 vehicle/camptothecin viability | viability with camptothecin (% of control) | viability without drug (% of control) | outcome |
| --- | --- | --- | --- | --- | --- |
| MS4A5 (membrane spanning 4-domains A5) | 1 | -0.363 | 74.2 | 57.7 | inactive |
| MS4A5 (membrane spanning 4-domains A5) | 2 | -0.114 | 61.5 | 56.9 | inactive |
| MS4A5 (membrane spanning 4-domains A5) | 3 | -0.0671 | 69 | 65.9 | inactive |
| MS4A5 (membrane spanning 4-domains A5) | 4 | -0.0404 | 88.1 | 85.6 | inactive |
| LMTK1 (lemur tail kinase 1) | 1 | -0.196 | 118 | 103 | inactive |
| LMTK1 (lemur tail kinase 1) | 2 | -0.396 | 84.7 | 64.3 | inactive |
| LMTK1 (lemur tail kinase 1) | 3 | -0.176 | 97.8 | 86.6 | inactive |
| LMTK1 (lemur tail kinase 1) | 4 | -0.211 | 59.6 | 51.5 | inactive |
| PTPRR (protein tyrosine phosphatase receptor type R) | 1 | -0.0886 | 119 | 112 | inactive |
| PTPRR (protein tyrosine phosphatase receptor type R) | 2 | -0.353 | 61 | 47.7 | inactive |
| PTPRR (protein tyrosine phosphatase receptor type R) | 3 | -0.202 | 84.1 | 73.1 | inactive |
| PTPRR (protein tyrosine phosphatase receptor type R) | 4 | -0.114 | 83 | 76.7 | inactive |
| RNF144A (ring finger protein 144A) | 1 | -0.0573 | 33.4 | 32.1 | inactive |
| RNF144A (ring finger protein 144A) | 2 | -0.0277 | 103 | 101 | inactive |
| RNF144A (ring finger protein 144A) | 3 | -0.445 | 61.5 | 45.2 | inactive |
| TNFRSF17 (TNF receptor superfamily member 17) | 1 | -0.0802 | 83.6 | 79 | inactive |
| TNFRSF17 (TNF receptor superfamily member 17) | 2 | -0.239 | 131 | 111 | inactive |
| TNFRSF17 (TNF receptor superfamily member 17) | 3 | -0.133 | 105 | 95.9 | inactive |
| TNFRSF17 (TNF receptor superfamily member 17) | 4 | -0.503 | 68.2 | 48.1 | inactive |
| STK16 (serine/threonine kinase 16) | 1 | 0.161 | 76.2 | 85.2 | inactive |
| STK16 (serine/threonine kinase 16) | 2 | -0.524 | 85.1 | 59.2 | inactive |
| STK16 (serine/threonine kinase 16) | 3 | -0.245 | 40.9 | 34.5 | inactive |
| STK16 (serine/threonine kinase 16) | 4 | -0.43 | 73.1 | 54.3 | inactive |

Not a retest: 6 of the entries above.
| Gene | reagent no. | log2 vehicle/camptothecin viability | viability with camptothecin (% of control) | viability without drug (% of control) | outcome |
| --- | --- | --- | --- | --- | --- |
| PTPRR (protein tyrosine phosphatase receptor type R) | 1 | -0.0886 | 119 | 112 | inactive |
| PTPRR (protein tyrosine phosphatase receptor type R) | 2 | -0.353 | 61 | 47.7 | inactive |
| PTPRR (protein tyrosine phosphatase receptor type R) | 3 | -0.202 | 84.1 | 73.1 | inactive |
| PTPRR (protein tyrosine phosphatase receptor type R) | 4 | -0.114 | 83 | 76.7 | inactive |
| RNF144A (ring finger protein 144A) | 1 | -0.0573 | 33.4 | 32.1 | inactive |
| RNF144A (ring finger protein 144A) | 2 | -0.0277 | 103 | 101 | inactive |

Further records:
| Gene | reagent no. | log2 vehicle/camptothecin viability | viability with camptothecin (% of control) | viability without drug (% of control) | outcome |
| --- | --- | --- | --- | --- | --- |
| RGL2 (ral guanine nucleotide dissociation stimulator like 2) | 1 | -0.0679 | 124 | 118 | inactive |
| RGL2 (ral guanine nucleotide dissociation stimulator like 2) | 2 | -0.325 | 80.6 | 64.4 | inactive |
| RGL2 (ral guanine nucleotide dissociation stimulator like 2) | 3 | -0.118 | 57.3 | 52.8 | inactive |
| RGL2 (ral guanine nucleotide dissociation stimulator like 2) | 4 | 0.299 | 49.1 | 60.4 | inactive |
| KCNJ16 (potassium inwardly rectifying channel subfamily J member 16) | 1 | -0.153 | 111 | 99.6 | inactive |
| KCNJ16 (potassium inwardly rectifying channel subfamily J member 16) | 2 | -0.179 | 71.5 | 63.2 | inactive |
| KCNJ16 (potassium inwardly rectifying channel subfamily J member 16) | 3 | -0.479 | 83 | 59.6 | inactive |
| CLK4 (CDC like kinase 4) | 1 | 0.0272 | 110 | 112 | inactive |
| CLK4 (CDC like kinase 4) | 2 | 0.444 | 36.7 | 49.9 | inactive |
| CLK4 (CDC like kinase 4) | 3 | -0.223 | 92.2 | 79 | inactive |
| CLK4 (CDC like kinase 4) | 4 | -0.532 | 33.9 | 23.4 | inactive |
| BORA (BORA aurora kinase A activator) | 1 | -0.0697 | 63 | 60 | inactive |
| BORA (BORA aurora kinase A activator) | 2 | 0.0339 | 81 | 83 | inactive |
| BORA (BORA aurora kinase A activator) | 3 | -0.523 | 83 | 57.8 | inactive |
| AQP4 (aquaporin 4) | 1 | -0.505 | 77.7 | 54.8 | inactive |
| AQP4 (aquaporin 4) | 2 | -0.475 | 66.8 | 48 | inactive |
| AQP4 (aquaporin 4) | 3 | -0.088 | 40.1 | 37.7 | inactive |
| AQP4 (aquaporin 4) | 4 | -0.118 | 36.9 | 34 | inactive |
| LMAN2L (lectin, mannose binding 2 like) | 1 | -0.18 | 98.4 | 86.9 | inactive |
| LMAN2L (lectin, mannose binding 2 like) | 2 | -0.0559 | 91.9 | 88.4 | inactive |
| LMAN2L (lectin, mannose binding 2 like) | 3 | 0.0248 | 47 | 47.8 | inactive |
| LMAN2L (lectin, mannose binding 2 like) | 4 | -0.155 | 112 | 101 | inactive |
| ANTXR2 (ANTXR cell adhesion molecule 2) | 1 | -0.169 | 107 | 94.9 | inactive |
| ANTXR2 (ANTXR cell adhesion molecule 2) | 2 | -0.0666 | 95.8 | 91.5 | inactive |
| ANTXR2 (ANTXR cell adhesion molecule 2) | 3 | 0.149 | 90.7 | 101 | inactive |
| ANTXR2 (ANTXR cell adhesion molecule 2) | 4 | -0.333 | 63.7 | 50.6 | inactive |
| GPBAR1 (G protein-coupled bile acid receptor 1) | 1 | 0.281 | 50.7 | 61.7 | inactive |
| GPBAR1 (G protein-coupled bile acid receptor 1) | 2 | -0.571 | 24.3 | 16.4 | inactive |
| GPBAR1 (G protein-coupled bile acid receptor 1) | 3 | -0.432 | 115 | 85.6 | inactive |
| GPBAR1 (G protein-coupled bile acid receptor 1) | 4 | -0.342 | 74.3 | 58.6 | inactive |
| TNPO3 (transportin 3) | 1 | -0.349 | 75.3 | 59.1 | inactive |
| TNPO3 (transportin 3) | 2 | -0.329 | 95.1 | 75.7 | inactive |
| TNPO3 (transportin 3) | 3 | -0.661 | 93.9 | 59.3 | inactive |
| TNPO3 (transportin 3) | 4 | -0.175 | 107 | 94.6 | inactive |
| UNC5A (unc-5 netrin receptor A) | 1 | 0.104 | 50.3 | 54.1 | inactive |
| UNC5A (unc-5 netrin receptor A) | 2 | 0.391 | 60.8 | 79.8 | inactive |
| UNC5A (unc-5 netrin receptor A) | 3 | 0.0238 | 64.8 | 65.9 | inactive |
| UNC5A (unc-5 netrin receptor A) | 4 | -0.00536 | 99.5 | 99.1 | inactive |
| CDC73 (cell division cycle 73) | 1 | 0.128 | 43.8 | 47.9 | inactive |
| CDC73 (cell division cycle 73) | 2 | -0.0409 | 40.2 | 39.1 | inactive |
| CDC73 (cell division cycle 73) | 3 | 0.45 | 36.9 | 50.4 | inactive |
| CDC73 (cell division cycle 73) | 4 | 0.0702 | 49.6 | 52.1 | inactive |
| MARK3 (microtubule affinity regulating kinase 3) | 1 | -0.0785 | 80.1 | 75.8 | inactive |
| MARK3 (microtubule affinity regulating kinase 3) | 2 | -0.179 | 50.6 | 44.7 | inactive |
| MARK3 (microtubule affinity regulating kinase 3) | 3 | -0.138 | 99.6 | 90.5 | inactive |
| MARK3 (microtubule affinity regulating kinase 3) | 4 | 0.917 | 27.4 | 51.7 | inactive |
